Assay results as given in patent US12551532B2, “Long-acting amylin receptor agonists and uses thereof” (Eli Lilly and Company, priority 2021, dated 2026).
At least one compound was matched to its structure with a doubt left. Starred links: 1 amine or outer side, 2 acyl side, 3 side chain; linkers in the order of their positions; H or OH if unused. Positions of bridges follow the written chain, without caps; N, C: chain ends. Non-standard residues stand in square brackets, D forms with d. Residues, ends and D or L forms follow the SMILES beside them. Groups on a side chain read outwards from the residue. *: point of attachment. C20 diacid = O=C(O)CCCCCCCCCCCCCCCCCCC(=O)*; γGlu = O=C(O)[C@H](CCC(=O)[*:2])N[*:1]; αMeF = C[C@](N)(Cc1ccccc1)C(=O)O; NMeN = CN[C@@H](CC(N)=O)C(=O)O; Orn = NCCC[C@H](N)C(=O)O; CH2 = C([*:1])[*:2]

Columns and labels:
[1] = Food intake and body weight in normal rats, single SC dose; format: in vivo, Sprague Dawley rats; settings: for Δ Body Weight: 96 hours post dose vs initial weights; for Cumulative Food Intake Change vs Vehicle: 96 hours post dose vs vehicle
Procedure: Male Sprague Dawley rats from Envigo RMS (Indianapolis, IN) are maintained on a chow diet (2014; Teklad Global, Envigo RMS, Indianapolis, IN) and single housed in a temperature-controlled facility (72.0° F.; 22.2° C.) with a reversed 12:12-hour light cycle (10 AM OFF) and free access to food and water. At 10 weeks of age, non-fasted body weights and initial food weights are recorded, and animals are administered a single subcutaneous injection (SC) of vehicle or acylated peptide (1 mL/kg), followed by daily measurements of body weight and food intake for 4 days post dose. Area under the curve analysis (AUC) is calculated for both body weight and food intake versus vehicle.

[2] = Body weight and body composition in diet-induced obese rats, 2-week study; format: in vivo, Long Evan rats; settings: DIO rats, at 2 weeks vs initial
Procedure: Male Long Evan rats from Envigo RMS (Indianapolis, IN) at 14 weeks of age are put on a high fat diet (40% of kcal from fat, TD.95217; Envigo RMS, Indianapolis, IN) until 35-45 weeks old. Animals are individually housed in a temperature-controlled facility (75.0° F.; 23.9° C.) with a 12-hour reverse light/dark cycle (lights OFF at 10 AM) and free access to food and water. Body weights are recorded and body composition (fat mass) is determined using Quantitative Nuclear Magnetic Resonance Analysis (ECHO MRI, 3-1 Composition Analyzer; Echo Medical Systems, Houston, TX), followed by randomization into experimental groups (n=5). Rats are administered subcutaneous injections of vehicle or peptide (1 mL/kg) every three days (day 1, 4, 7, 10, and 13). Daily body weights are recorded and changes at end of treatment (day 14) are calculated as percentages versus pre-treatment weights (day 1). Body composition is determined on day 14, and changes in fat mass and fat-free mass (body weight−fat mass) are calculated from pre-treatment values as gram changes.

[3] = DIO rats: Compound II alone and in combination with incretin compounds; format: in vivo, Long Evans rats
Procedure: This study is conducted to investigate the effect of Compound II for diabetes and/or obesity conditions in DIO rats when administered in combination with other incretin compounds, including a GLP-1 agonist (Compound XVII), oxyntomodulin analog (Compound XVIII), and a triagonist of glucagon, GLP-1, and GIP (Compound XIX). Diet-induced obese (DIO) male Long Evans (Envigo) rats, maintained on a calorie rich diet since arrival at Lilly (TD95217; Teklad, Madison, WI), are used in the following studies. Animals are individually housed in a temperature-controlled (24° C.) facility with 12-hour light/dark cycle (lights on 2200) and free access to food (TD95217) and water.
The rats are randomized according to their body weight, so that each experimental group of animals would have similar body weight. The body weights range from 529 to 823 grams.
Each group contains five rats. […] SC injections are made on Days 1, 4, 7, 10 and 13. Body weight and food intake are measured daily throughout the study. Absolute changes in body weight are calculated by subtracting the body weight of the same animal prior to the first injection of molecule.
At the end of the study, blood is collected to measure blood glucose and plasma insulin. Blood glucose is measured by AccuChek glucometers (Roche, Indianapolis, IN). Insulin is measured by ELISA (MSD, Rockville, MD). […]

[4] = 100 nmol/kg SC every three days

## CC(C)C[C@H](NC(=O)[C@H](CCCN)NC(=O)CNC(=O)[C@@H](NC(=O)[C@H](C)NC(=O)[C@@H]1CSCSC[C@H](NC(=O)CC[C@H](N)C(=O)O)C(=O)N[C@@H](CC(N)=O)C(=O)N[C@@H]([C@@H](C)O)C(=O)N[C@@H](C)C(=O)N[C@@H]([C@@H](C)O)C(=O)N1)[C@@H](C)O)C(=O)N[C@@H](C)C(=O)N[C@@H](CCC(=O)O)C(=O)N[C@@](C)(Cc1ccccc1)C(=O)N[C@@H](CC(C)C)C(=O)N[C@H](C(=O)N[C@@H](CCCNC(=N)N)C(=O)N[C@@H](CO)C(=O)N[C@@H](CO)C(=O)N[C@@H](CC(N)=O)C(=O)N(C)[C@@H](CC(N)=O)C(=O)N[C@@H](Cc1ccccc1)C(=O)NCC(=O)N1CCC[C@H]1C(=O)N[C@@H](CCCCNC(=O)CC[C@H](NC(=O)CC[C@H](NC(=O)CCCCCCCCCCCCCCCCCCC(=O)O)C(=O)O)C(=O)O)C(=O)N[C@@H](CC(C)C)C(=O)N1CCC[C@H]1C(=O)N1CCC[C@H]1C(=O)N[C@H](C(=O)N[C@@H](CCC(=O)O)C(=O)N[C@H](C(=O)NCC(=O)N[C@@H](CO)C(=O)N[C@@H](CC(N)=O)C(=O)N[C@H](C(=O)N[C@@H](Cc1ccc(O)cc1)C(N)=O)[C@@H](C)O)C(C)C)[C@@H](C)O)C(C)C [Compound II] (γGlu-CNTATCATG[Orn]LAE[αMeF]LVRSSN[NMeN]FGPK([γGlu-γGlu-C20 diacid])LPPTEVGSNTY-NH2; linker 1-6 via CH2)
[1]; 0.1 nmol/kg SC single dose
  Δ Body Weight: 1.8%
  Cumulative Food Intake Change vs Vehicle: −4.1%
[1]; 0.3 nmol/kg SC single dose
  Δ Body Weight: 2.4%
  Cumulative Food Intake Change vs Vehicle: −3.7%
[1]; 1 nmol/kg SC single dose
  Δ Body Weight: 0.5%
  Cumulative Food Intake Change vs Vehicle: −18.6%
[1]; 3 nmol/kg SC single dose
  Δ Body Weight: −3.3%
  Cumulative Food Intake Change vs Vehicle: −37.9%
[1]; 10 nmol/kg SC single dose
  Δ Body Weight: −7.4%
  Cumulative Food Intake Change vs Vehicle: −57.3%
[1]; 30 nmol/kg SC single dose
  Δ Body Weight: −10.1%
  Cumulative Food Intake Change vs Vehicle: −69.8%
[1]; 100 nmol/kg SC single dose
  Δ Body Weight: −12.9%
  Cumulative Food Intake Change vs Vehicle: −77.9%
[1]; 300 nmol/kg SC single dose
  Δ Body Weight: −14.9%
  Cumulative Food Intake Change vs Vehicle: −84.5%
[1]; 1000 nmol/kg SC single dose
  Δ Body Weight: −17.2%
  Cumulative Food Intake Change vs Vehicle: −87.1%
[2]; 1 nmol/kg SC every three days
  Δ Body Weight: −7.1%
  Δ Fat Mass: -43.8 g
  Δ Fat-Free Mass: -7.5 g
[2]; 10 nmol/kg SC every three days
  Δ Body Weight: −9.0%
  Δ Fat Mass: -59.6 g
  Δ Fat-Free Mass: -5.6 g
[2]; [4]
  Δ Body Weight: −10.7%
  Δ Fat Mass: -61.0 g
  Δ Fat-Free Mass: -15.4 g
[3]; 1 nmol/kg SC Day 1, 4, 7, 10, 13, Day 1 to Day 14, mean±SEM
  Body Weight Change: -35.90 ± 3.95 g
[3]; 1 nmol/kg SC every three days, 14-day treatment period, mean±SEM
  Cumulative Food Intake: 149.94 ± 10.88 g
